Measured values: patent US6365711
No constants are given. Whether binding was seen depends on the method and setting. Some results given as binding are weak or reduced against the parent protein; the word gives no strength.

Amino acid sequences for entries named in this document (tags omitted). A change or cut given only in a name is not applied to a line headed by its entry. Residues count along the entry.
UniProt O70436: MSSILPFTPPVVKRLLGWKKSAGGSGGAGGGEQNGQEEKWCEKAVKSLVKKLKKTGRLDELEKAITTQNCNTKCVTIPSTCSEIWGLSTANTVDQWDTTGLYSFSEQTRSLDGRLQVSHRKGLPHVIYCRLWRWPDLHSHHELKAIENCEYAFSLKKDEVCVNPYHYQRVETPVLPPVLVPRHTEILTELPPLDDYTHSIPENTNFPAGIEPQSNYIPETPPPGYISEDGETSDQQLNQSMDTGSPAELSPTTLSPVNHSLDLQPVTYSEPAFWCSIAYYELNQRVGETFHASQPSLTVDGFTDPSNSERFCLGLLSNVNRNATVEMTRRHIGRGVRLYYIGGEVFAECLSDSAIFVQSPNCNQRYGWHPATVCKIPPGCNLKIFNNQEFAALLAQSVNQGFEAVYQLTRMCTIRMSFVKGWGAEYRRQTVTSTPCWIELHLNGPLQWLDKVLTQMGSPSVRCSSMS
UniProt P97471, residues 1-548: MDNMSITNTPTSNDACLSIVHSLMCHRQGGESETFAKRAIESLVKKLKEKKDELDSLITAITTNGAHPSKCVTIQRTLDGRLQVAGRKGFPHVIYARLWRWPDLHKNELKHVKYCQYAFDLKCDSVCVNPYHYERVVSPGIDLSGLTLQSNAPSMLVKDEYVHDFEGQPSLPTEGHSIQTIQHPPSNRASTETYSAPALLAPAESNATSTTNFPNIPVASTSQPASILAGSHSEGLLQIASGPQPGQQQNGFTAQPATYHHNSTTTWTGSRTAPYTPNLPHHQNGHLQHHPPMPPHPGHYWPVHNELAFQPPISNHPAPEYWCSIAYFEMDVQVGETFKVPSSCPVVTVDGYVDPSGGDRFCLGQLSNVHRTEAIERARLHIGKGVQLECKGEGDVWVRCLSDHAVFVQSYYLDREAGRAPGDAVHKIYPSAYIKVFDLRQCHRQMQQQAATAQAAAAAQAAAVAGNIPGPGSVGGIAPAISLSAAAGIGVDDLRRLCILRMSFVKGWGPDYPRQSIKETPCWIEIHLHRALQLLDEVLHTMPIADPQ
UniProt Q15797, residues 249-465: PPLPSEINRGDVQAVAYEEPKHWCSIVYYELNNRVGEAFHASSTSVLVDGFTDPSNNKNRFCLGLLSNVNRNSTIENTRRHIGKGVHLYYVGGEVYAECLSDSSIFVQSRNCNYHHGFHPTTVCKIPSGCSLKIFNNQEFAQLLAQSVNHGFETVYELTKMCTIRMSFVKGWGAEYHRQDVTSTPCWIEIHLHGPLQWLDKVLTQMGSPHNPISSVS
UniProt P04386: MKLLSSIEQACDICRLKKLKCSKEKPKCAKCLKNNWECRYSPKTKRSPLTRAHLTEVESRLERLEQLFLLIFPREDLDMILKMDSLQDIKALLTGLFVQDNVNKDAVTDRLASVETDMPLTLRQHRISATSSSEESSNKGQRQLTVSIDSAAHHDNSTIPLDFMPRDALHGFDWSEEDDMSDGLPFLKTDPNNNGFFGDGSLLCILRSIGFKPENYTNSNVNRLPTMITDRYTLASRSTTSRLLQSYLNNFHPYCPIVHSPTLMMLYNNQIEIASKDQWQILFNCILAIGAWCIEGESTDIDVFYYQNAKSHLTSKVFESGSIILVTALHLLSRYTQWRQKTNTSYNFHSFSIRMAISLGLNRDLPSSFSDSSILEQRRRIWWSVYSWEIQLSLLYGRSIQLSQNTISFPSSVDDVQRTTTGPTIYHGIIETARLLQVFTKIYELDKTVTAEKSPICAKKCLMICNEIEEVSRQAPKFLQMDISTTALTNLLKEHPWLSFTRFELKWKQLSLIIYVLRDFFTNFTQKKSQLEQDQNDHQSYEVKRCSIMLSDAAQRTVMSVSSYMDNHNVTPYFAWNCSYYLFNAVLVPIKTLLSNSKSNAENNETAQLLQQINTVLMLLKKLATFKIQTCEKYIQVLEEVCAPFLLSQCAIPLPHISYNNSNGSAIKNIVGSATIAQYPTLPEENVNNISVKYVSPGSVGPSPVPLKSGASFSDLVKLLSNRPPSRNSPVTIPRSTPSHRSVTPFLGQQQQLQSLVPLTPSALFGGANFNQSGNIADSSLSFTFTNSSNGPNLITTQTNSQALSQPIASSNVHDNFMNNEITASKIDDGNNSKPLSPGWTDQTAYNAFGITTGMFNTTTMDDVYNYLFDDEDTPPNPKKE

Experiments:
[1] = target: Xenopus Smad2 MH2 domain (aa248 to aa467) GAL4 activation domain fusion (Xenopus) (UniProt O70436); experiment: yeast two-hybrid
[2] = target: full-length mouse Smad4 (aa1 to aa548) GAL4 activation domain fusion (mouse) (UniProt P97471); experiment: yeast two-hybrid
[3] = target: Xenopus Smad2 MH2 domain (aa248 to aa467) GAL4 activation domain fusion (Xenopus) (UniProt O70436); experiment: yeast two-hybrid, X-gal colony lift filter assay (color intensity)
[4] = target: human Smad1 MH2 domain (aa249 to aa465) GAL4 activation domain fusion (human) (UniProt Q15797); experiment: as above
[5] = target: full-length mouse Smad4 (aa1 to aa548) GAL4 activation domain fusion (mouse) (UniProt P97471); experiment: as above

Measured: binding

Smad4 (FL) GAL4 DNA-binding domain fusion (from UniProt P04386 1-147; P97471 1-548)
binds: all assays above
